Consider one substance from publication PMC2990700.

Protein sequences, listed by entry. Tags and fused reporters are not part of them. Lines headed by an entry give the natural chain unless they say otherwise; changes in a name come on top.
UniProt Q9DCH4: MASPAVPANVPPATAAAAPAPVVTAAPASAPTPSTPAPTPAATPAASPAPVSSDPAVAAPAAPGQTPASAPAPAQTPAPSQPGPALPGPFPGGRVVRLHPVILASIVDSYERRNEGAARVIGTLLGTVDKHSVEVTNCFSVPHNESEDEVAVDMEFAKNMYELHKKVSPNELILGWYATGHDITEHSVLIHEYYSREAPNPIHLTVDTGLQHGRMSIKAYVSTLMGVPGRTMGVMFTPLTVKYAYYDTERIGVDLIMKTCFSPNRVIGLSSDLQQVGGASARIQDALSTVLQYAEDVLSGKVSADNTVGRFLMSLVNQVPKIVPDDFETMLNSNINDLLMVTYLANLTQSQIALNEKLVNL

For this assay, the target named is T1, VSV-tagged Deltex1 (VSV-DTX) (UniProt Q86Y01).
T1 sequence: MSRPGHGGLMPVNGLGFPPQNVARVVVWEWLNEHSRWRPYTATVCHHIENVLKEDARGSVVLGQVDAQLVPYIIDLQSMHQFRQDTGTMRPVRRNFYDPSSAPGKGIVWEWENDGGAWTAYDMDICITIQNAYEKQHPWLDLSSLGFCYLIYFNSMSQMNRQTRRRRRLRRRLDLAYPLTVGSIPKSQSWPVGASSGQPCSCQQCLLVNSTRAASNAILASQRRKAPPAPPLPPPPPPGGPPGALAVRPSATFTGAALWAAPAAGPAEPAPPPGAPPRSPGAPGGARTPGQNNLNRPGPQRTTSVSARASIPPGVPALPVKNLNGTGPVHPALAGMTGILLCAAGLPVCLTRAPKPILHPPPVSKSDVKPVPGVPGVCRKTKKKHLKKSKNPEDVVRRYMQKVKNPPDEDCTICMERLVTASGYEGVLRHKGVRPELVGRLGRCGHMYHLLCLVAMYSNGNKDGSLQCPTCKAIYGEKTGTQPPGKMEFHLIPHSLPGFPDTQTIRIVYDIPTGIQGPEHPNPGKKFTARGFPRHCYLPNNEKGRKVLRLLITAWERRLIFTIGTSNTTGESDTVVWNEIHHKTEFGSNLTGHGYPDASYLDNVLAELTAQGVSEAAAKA
Nature of the assay: co-IP; HEK293T cotransfected with eIF3f forms and VSV-DTX; IP with anti-VSV, precipitates eluted with VSV peptide; Western blot. Background: In western blotting, separated proteins are transferred to a membrane and probed.

Results are given in words; binding and its absence hold for the method and conditions named. Binding seen in cells or lysates may run through a third protein. Binding calls can cover weak binding; strength is not graded here. Tags and fused reporters may be left off the sequences shown.

Consider “HA-tagged murine eIF3f catalytic mutant (meIF3f Mut) (from UniProt Q9DCH4)”, for which the binding entry is on record as “binds”.
